# Measured values: PubChem BioAssay AID330 (DTP/NCI, 2004)
# The list shows only some results of the screen, not a fair sample: its compounds were picked by chemical class. Not every dose and run of a compound is shown. T/C: endpoint of the treated group in % of that of the vehicle group. Some entries give survivors of the animals treated and no T/C: the source holds a T/C of zero for them, seemingly a mark for toxic or unscored doses. Some survivor counts are full or nearly so, which does not show that the dose was tolerated: the source hardly ever lists a survival T/C far under the control, and the zero likely stands for such cases as well. Survivors were counted at the toxicity check, usually on the fifth day, unless a day is given; later deaths do not show. Schedules are NCI's codes, taken here to give the interval after Q, in days (D) or hours (H), and the number of doses after X. Some metal complexes and salts are drawn in pieces, as in the source, so charges may not balance. Where survival is the endpoint, this PubChem deposit counts one and a half times the control or more as active, and values a quarter to a half above the control carry no call in these data; other NCI protocols may use other cut-offs. Some T/C values are followed by the survivors on the day toxicity was checked, most often the fifth; where neither a count nor a note follows, no animal had died by that day. Some doses were run more than once; the values are given in rising order. Some entries show no survivor count and are marked so; the dose need not have been tolerated. Brackets with × give the number of equal values in this list.
# Tested on: P388 leukemia ip, CD2F1 mice, survival T/C
# Assay: NCI In Vivo Anticancer Drug Screen. Data for tumor model P388 Leukemia (intraperitoneal) in CD2F1 (CDF1) mice
# Conditions: T/C endpoint: median survival time, higher T/C = longer survival
# [1] = dose: 25.0 mg/kg/injection, schedule: Q01DX005 (ip), vehicle: saline
# [2] = dose: 50.0 mg/kg/injection, schedule: Q01DX005 (ip), vehicle: saline
# [3] = dose: 100.0 mg/kg/injection, schedule: Q01DX005 (ip), vehicle: saline
# [4] = dose: 200.0 mg/kg/injection, schedule: Q01DX005 (ip), vehicle: saline
# [5] = dose: 50.0 mg/kg/injection, schedule: Q01DX005 (ip), vehicle: saline with Tween-80
# [6] = dose: 100.0 mg/kg/injection, schedule: Q01DX005 (ip), vehicle: saline with Tween-80
# [7] = dose: 200.0 mg/kg/injection, schedule: Q01DX005 (ip), vehicle: saline with Tween-80
# [8] = dose: 50.0 mg/kg/injection, schedule: Q01DX009 (ip), vehicle: Klucel (hydroxypropylcellulose) (HPC)
# [9] = dose: 100.0 mg/kg/injection, schedule: Q01DX009 (ip), vehicle: Klucel (hydroxypropylcellulose) (HPC)
# [10] = dose: 200.0 mg/kg/injection, schedule: Q01DX009 (ip), vehicle: Klucel (hydroxypropylcellulose) (HPC)
smiles,measurement,setting,value
CC1(CCl)COP(=O)(n2ccnc2)OC1 (centres undefined),T/C,"dose: 60.0 mg/kg/injection, schedule: Q01DX005 (ip), vehicle: saline",101 % of control
same,T/C,"dose: 120.0 mg/kg/injection, schedule: Q01DX005 (ip), vehicle: saline",103 % of control
same,T/C,"dose: 240.0 mg/kg/injection, schedule: Q01DX005 (ip), vehicle: saline",100 % of control
NCCC(N)CSP(=O)(O)O (centres undefined),T/C,[1],100 % of control
same,T/C,[2],103 % of control
same,T/C,[3],110 % of control
same,T/C,[4],107 % of control
O=P(S)(SSP(=O)(S)c1ccccc1)c1ccccc1.[Ti].[c-]1[c-][c-][cH-][c-]1.[c-]1[c-][c-][cH-][c-]1 (centres undefined),T/C,[5],100 % of control
same,T/C,[6],100 % of control
same,T/C,[7],96 % of control
NC(=O)N/N=C/c1ccc(N(CCCl)CCCl)cc1,T/C,"dose: 25.0 mg/kg/injection, schedule: Q01DX009 (ip), vehicle: Klucel (hydroxypropylcellulose) (HPC)",98 and 126 % of control
same,T/C,[8],106 and 126 % of control
same,T/C,[9],95 and 153 % of control
same,T/C,[10],156 and 176 % of control
same,T/C,"dose: 400.0 mg/kg/injection, schedule: Q01DX009 (ip), vehicle: Klucel (hydroxypropylcellulose) (HPC)",185 % of control
C1CN1.NC(CO)C(=O)O.Nc1ncnc2nc[nH]c12,T/C,"dose: 100.0 mg/kg/injection, schedule: Q04DX003 (ip), vehicle: saline",100 % of control
same,T/C,"dose: 200.0 mg/kg/injection, schedule: Q04DX003 (ip), vehicle: saline",91 % of control
same,T/C,"dose: 400.0 mg/kg/injection, schedule: Q04DX003 (ip), vehicle: saline",88 % of control [4 of 6 alive]
CP(=O)(O)O.[Cu+2],T/C,"dose: 6.25 mg/kg/injection, schedule: Q01DX009 (ip), vehicle: saline with Tween-80",94 % of control [survivor count not shown]
same,T/C,"dose: 12.5 mg/kg/injection, schedule: Q01DX009 (ip), vehicle: saline with Tween-80",100 % of control [survivor count not shown] (2×)
ClCCNc1nc2ccc(Cl)cc2c2ccccc12,T/C,"dose: 5.0 mg/kg/injection, schedule: Q01DX009 (ip), vehicle: saline sonified",95 % of control
same,T/C,"dose: 10.0 mg/kg/injection, schedule: Q01DX009 (ip), vehicle: saline sonified",95 % of control
same,survivor count,"dose: 20.0 mg/kg/injection, schedule: Q01DX009 (ip), vehicle: saline sonified",0 of 6
same,survivor count,"dose: 40.0 mg/kg/injection, schedule: Q01DX009 (ip), vehicle: saline sonified",0 of 6
FP1(F)(F)N(CCl)P(F)(F)(F)N1CCl,T/C,"dose: 6.25 mg/kg/injection, schedule: Q01DX005 (ip), vehicle: saline",95 % of control
same,T/C,"dose: 12.5 mg/kg/injection, schedule: Q01DX005 (ip), vehicle: saline",101 % of control
same,T/C,[1],101 % of control
same,survivor count,[2],0 of 5
same,survivor count,[3],0 of 5
same,survivor count,[4],0 of 5
O=C(CCSCCCl)Nc1ccc(P(=O)(O)O)cc1,T/C,"dose: 3.13 mg/kg/injection, schedule: Q04DX003 (ip), vehicle: DMSO",94 % of control
same,T/C,"dose: 6.25 mg/kg/injection, schedule: Q04DX003 (ip), vehicle: DMSO",96 % of control
same,T/C,"dose: 12.5 mg/kg/injection, schedule: Q04DX003 (ip), vehicle: DMSO",104 % of control
same,T/C,"dose: 25.0 mg/kg/injection, schedule: Q04DX003 (ip), vehicle: DMSO",101 % of control
same,T/C,"dose: 50.0 mg/kg/injection, schedule: Q04DX003 (ip), vehicle: DMSO, evaluated on day 30",104 % of control
same,T/C,"dose: 50.0 mg/kg/injection, schedule: Q04DX003 (ip), vehicle: DMSO, evaluated on day 45",120 % of control
same,T/C,"dose: 100.0 mg/kg/injection, schedule: Q04DX003 (ip), vehicle: DMSO",98 % of control
same,T/C,"dose: 200.0 mg/kg/injection, schedule: Q04DX003 (ip), vehicle: DMSO",118 % of control
O=c1ccc2cc3ccoc3c(OP(=O)(Cl)N(CCCl)CCCl)c2o1 (centres undefined),T/C,"dose: 25.0 mg/kg/injection, schedule: Q01DX005 (ip), vehicle: saline with Tween-80",109 % of control
same,T/C,[5],112 and 124 % of control
same,T/C,[6],119 and 128 % of control
same,T/C,[7],123 % of control
same,survivor count,[7],5 of 5
COc1ccc2nccc(/C=C\c3ccccc3)c2c1.O=[N+]([O-])c1cc([N+](=O)[O-])c(O)c([N+](=O)[O-])c1,T/C,"dose: 20.0 mg/kg/injection, schedule: Q01DX009 (ip), vehicle: saline with Tween-80",90 % of control
same,survivor count,"dose: 40.0 mg/kg/injection, schedule: Q01DX009 (ip), vehicle: saline with Tween-80",5 of 6
same,T/C,"dose: 80.0 mg/kg/injection, schedule: Q01DX009 (ip), vehicle: saline with Tween-80",91 % of control
[O-][n+]1nccnc1N1CC1,T/C,"dose: 100.0 mg/kg/injection, schedule: Q01DX001 (ip), vehicle: saline",99 % of control
same,T/C,"dose: 200.0 mg/kg/injection, schedule: Q01DX001 (ip), vehicle: saline",98 % of control
same,T/C,"dose: 400.0 mg/kg/injection, schedule: Q01DX001 (ip), vehicle: saline",100 % of control
CN[N+](=O)[O-],T/C,"dose: 6.25 mg/kg/injection, schedule: Q04DX002 (ip), vehicle: saline",93 % of control [survivor count not shown]
same,T/C,"dose: 12.5 mg/kg/injection, schedule: Q04DX002 (ip), vehicle: saline",100 % of control [survivor count not shown]
same,T/C,"dose: 25.0 mg/kg/injection, schedule: Q04DX002 (ip), vehicle: saline",106 % of control [survivor count not shown]
N#[O+].[C-]#N.[C-]#N.[C-]#N.[C-]#N.[C-]#N.[Cr+5],T/C,"dose: 12.5 mg/kg/injection, schedule: Q04DX003 (ip), vehicle: water",99 % of control
same,T/C,"dose: 25.0 mg/kg/injection, schedule: Q04DX003 (ip), vehicle: water",99 % of control
same,T/C,"dose: 50.0 mg/kg/injection, schedule: Q04DX003 (ip), vehicle: water",98 % of control
same,T/C,"dose: 100.0 mg/kg/injection, schedule: Q04DX003 (ip), vehicle: water",94 % of control [5 of 6 alive]
same,survivor count,"dose: 200.0 mg/kg/injection, schedule: Q04DX003 (ip), vehicle: water",3 of 6
O=C1/C(=C\N(CCCl)CCCl)C2CCC1C2 (centres undefined),T/C,"dose: 100.0 mg/kg/injection, schedule: Q04DX003 (ip), vehicle: Klucel (hydroxypropylcellulose) (HPC)",103 and 116 % of control
same,T/C,"dose: 200.0 mg/kg/injection, schedule: Q04DX003 (ip), vehicle: Klucel (hydroxypropylcellulose) (HPC)",100 and 129 % of control [5 of 6 alive]
same,T/C,"dose: 400.0 mg/kg/injection, schedule: Q04DX003 (ip), vehicle: Klucel (hydroxypropylcellulose) (HPC)",108 and 153 % of control [5 of 6 alive]
O=C(O)COc1ccc(N(CCCl)CCCl)cc1,T/C,"dose: 12.5 mg/kg/injection, schedule: Q04DX003 (ip), vehicle: saline with Tween-80",109 % of control
same,survivor count,"dose: 25.0 mg/kg/injection, schedule: Q04DX003 (ip), vehicle: saline with Tween-80",6 of 6
same,survivor count,"dose: 50.0 mg/kg/injection, schedule: Q04DX003 (ip), vehicle: saline with Tween-80",3 of 6
same,survivor count,"dose: 100.0 mg/kg/injection, schedule: Q04DX003 (ip), vehicle: saline with Tween-80",4 of 6
same,survivor count,"dose: 200.0 mg/kg/injection, schedule: Q04DX003 (ip), vehicle: saline with Tween-80",0 of 6
same,survivor count,"dose: 400.0 mg/kg/injection, schedule: Q04DX003 (ip), vehicle: saline with Tween-80",0 of 6
N1=C(c2nnc(-c3nn[nH]n3)nn2)NNN1,T/C,[8],93 % of control [survivor count not shown]
same,T/C,[9],100 % of control [survivor count not shown]
same,T/C,[10],94 % of control [survivor count not shown]
